Screen size: about 410,000 compounds; about 310 (0.076%) were called active. This list was built around the results that the source calls inconclusive (neither active nor inactive); the mix of calls is not that of the screen. The call rests on the fitted dose curve; in most records, active means well fitted activation curve with a large enough effect; inconclusive means small, poorly fitted or top-dose-only effect, or another doubt; inactive means no such curve, though single readings can be large or run the other way. Where the call is inconclusive, the potency comes from a doubtful curve fit.
These compounds were tested against Parathyroid hormone/parathyroid hormone-related peptide receptor (Homo sapiens) (UniProt Q03431) (assay: qHTS for PTHR1 Agonists: Primary Screen). Conditions: HEK293 GP2 PTHR1 cells, GloSensor cAMP luminescence, 1 h; activation: at 115 µM (top of the series) unless noted; series mostly up to 115 µM.
Summary of the method: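 HEK-293-derived GP2 cells expressing PTHR1 and a GloSensor cAMP reporter, 3,000/well, plated overnight, given luciferin plus IBMX (each 0.5 mM as added) for 1 h at 37 °C, then compound for 1 h at 37 °C. Luminescence was read after 15 min at room temperature.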
Further: nearly all actives have a fitted effect of over 55% in size.
Potency means the concentration at half of the fitted maximal effect.

The chains behind the UniProt entries cited, without tags or fusion partners.
UniProt Q03431, whole entry, looked up: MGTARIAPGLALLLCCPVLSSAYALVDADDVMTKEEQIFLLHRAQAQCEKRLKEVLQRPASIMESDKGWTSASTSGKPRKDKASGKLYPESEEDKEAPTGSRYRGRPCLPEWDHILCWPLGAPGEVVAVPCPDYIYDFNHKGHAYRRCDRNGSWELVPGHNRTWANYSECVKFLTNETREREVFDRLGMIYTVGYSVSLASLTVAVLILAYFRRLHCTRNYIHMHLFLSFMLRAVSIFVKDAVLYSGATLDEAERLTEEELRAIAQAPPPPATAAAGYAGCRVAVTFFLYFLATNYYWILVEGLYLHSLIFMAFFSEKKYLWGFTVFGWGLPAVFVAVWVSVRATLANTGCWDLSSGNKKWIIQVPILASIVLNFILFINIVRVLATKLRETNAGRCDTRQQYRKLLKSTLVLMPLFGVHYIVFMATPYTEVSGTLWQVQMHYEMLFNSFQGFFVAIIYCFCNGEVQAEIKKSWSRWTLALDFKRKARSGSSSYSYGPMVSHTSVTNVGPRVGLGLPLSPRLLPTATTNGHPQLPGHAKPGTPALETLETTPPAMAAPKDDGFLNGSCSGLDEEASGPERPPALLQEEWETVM

**Q.** For CCN(C(=O)COC(=O)c1cc(=O)[nH]c2ccccc12)C1CCS(=O)(=O)C1 (configuration not stated), which activation is on record?
**A.** inconclusive: 30.6% [activator]

**Q.** With CC(Sc1nc(O)c(-c2ccccc2)c(=O)[nH]1)C(=O)Nc1ccc(Cl)cc1 (configuration not stated) as the compound, how does the Potency read?
**A.** inconclusive: 17.8 µM [activator, partial curve, poor fit]

**Q.** O/N=C1/CCc2cccc3cccc1c23 was tested. Which Potency did it give?
**A.** inconclusive: 4.47 µM [activator, single point]

**Q.** For COc1ccc(N2CCN(C(=O)CCc3ccccc3)CC2)cc1, which “outcome” value is on record?
**A.** inactive

**Q.** Which Potency does the source give for CCOC(=O)CSc1nc2sc3c(c2c(=O)n1-c1ccccc1)CCN(C(C)C)C3 here?
**A.** inconclusive: 3.98 µM [activator, full curve]

**Q.** With COc1ccc(CNC(=O)C2CCN(S(=O)(=O)c3ccc4c(c3)NC(=O)CO4)CC2)cc1 as the compound, how does the Potency read?
**A.** inconclusive: 89.1 µM [activator, partial curve, poor fit]

**Q.** For CN(CCOCCOc1ccc(F)cc1)Cc1ccccc1, which Potency is on record?
**A.** inconclusive: 50.1 µM [activator, partial curve, poor fit]

**Q.** With CCN(CC)S(=O)(=O)c1ccc(C(=O)Nc2nnc(COC)o2)cc1 as the compound, how does the “outcome” value read?
**A.** inactive

**Q.** How did the Potency turn out when CCC(C)NS(=O)(=O)c1ccc(OCC(=O)N2CCCCC2)cc1 (configuration not stated) was run?
**A.** inconclusive: 0.316 µM [activator, partial curve, poor fit]

**Q.** For COc1ccccc1-c1cc2nc(C)c(CCC(=O)NC3CCCCC3)c(C)n2n1, which “outcome” value is on record?
**A.** inactive

**Q.** With Cc1cccc2nc3c(nc12)CCCC3 as the compound, how does the activation read?
**A.** inconclusive: 17.6% [activator]

**Q.** Which Potency does the source give for CCc1noc(C)c1C(=O)N(CC)CC(=O)Nc1ccccc1C(F)(F)F here?
**A.** inconclusive: 79.4 µM [activator, partial curve, poor fit]

**Q.** Cc1nc(SCC(=O)Nc2cc(C)on2)c2c(C)c(C)sc2n1 was tested. Which Potency did it give?
**A.** inconclusive: 1.41 µM [activator, full curve, poor fit]

**Q.** With O=C(COc1ccc(Nc2ccccc2)cc1)OCC(=O)N1CCCCC1 as the compound, how does the activation read?
**A.** inconclusive: 39.9% [activator]

**Q.** CCn1c(SCC(=O)Nc2sccc2C(N)=O)nnc1C1CC1 was tested. Which Potency did it give?
**A.** inconclusive: 100 µM [activator, single point]

**Q.** For C[C@H](CO)N1C[C@H](C)[C@@H](CN(C)Cc2ccc(C(=O)O)cc2)Oc2c(NC(=O)c3ccncc3)cccc2C1=O, which Potency is on record?
**A.** inconclusive: 141 µM [activator, single point]

**Q.** COC(=O)c1ccccc1NC(=O)CSc1nc(C)cc(C)n1 was tested. Which “activation” value did it give?
**A.** inactive: -9.84%

**Q.** With COc1ccc(-c2sc(Nc3cccc4ccccc34)n[n+]2C)c(C)c1C as the compound, how does the “activation” value read?
**A.** inactive: -21.4%

**Q.** CCCC(=O)Nc1ccccc1C(=O)OCc1cc(=O)n2nc(C(C)C)sc2n1 was tested. Which Potency did it give?
**A.** inconclusive: 8.91 µM [activator, full curve, poor fit]

**Q.** How did the activation turn out when Cc1ccccc1-n1ncc2c1CC(C)(C)CC2NC(=O)CCN1CCCCC1=O (configuration not stated) was run?
**A.** inconclusive: 43.4% [activator]

**Q.** With Cc1ccc2oc(C(Cl)(Cl)Cl)cc(=O)c2c1 as the compound, how does the “activation” value read?
**A.** inactive: -1.09% [at 57.5 µM]

**Q.** COc1ccc(-n2ncc3c(=O)n(CC(=O)N4c5ccccc5CC4C)cnc32)cc1 (configuration not stated) was tested. Which Potency did it give?
**A.** inconclusive: 31.6 µM [activator, partial curve, poor fit]

**Q.** For CCCCc1ccc(NC(=O)CSCc2cc(=O)[nH][nH]2)cc1, which activation is on record?
**A.** inconclusive: 30.1% [activator] [at 57.5 µM]

**Q.** Which “outcome” value does the source give for CCn1c(=O)c2cc(C(=O)NCCc3ccc(Cl)cc3)sc2c2ccccc21 here?
**A.** inactive

**Q.** Which activation does the source give for O=C(COC(=O)c1cc(-c2ccccc2)nc2ccccc12)Nc1ccc2c(c1)OCO2 here?
**A.** inconclusive: -63.1% [activator]

**Q.** Which “activation” value does the source give for CC1CN(C=O)CC(C)N1CCN1C(C)CN(C=O)CC1C (configuration not stated) here?
**A.** inactive: -14.6%

**Q.** How did the Potency turn out when O=c1c2cc(NC(=S)NCc3ccccn3)ccc2nc2n1CCCCC2 was run?
**A.** inconclusive: 12.6 µM [activator, single point]

**Q.** With Nc1nc(N)c(N=Nc2ccc(S(N)(=O)=O)cc2)c(=O)[nH]1 as the compound, how does the “activation” value read?
**A.** inactive: -16.4%

**Q.** How did the Potency turn out when O=C(CSc1nnc(COc2ccccc2)o1)N1CCOCC1 was run?
**A.** inconclusive: 141 µM [activator, single point]

**Q.** CCCC(=O)N1CCC(Cc2ccccc2)CC1 was tested. Which Potency did it give?
**A.** inconclusive: 31.6 µM [activator, partial curve, poor fit]

**Q.** Which “outcome” value does the source give for COc1ccc2c(c1)O/C(=C\c1ccccc1C)C2=O here?
**A.** inactive

**Q.** Which Potency does the source give for Cn1c(=O)n(C)c2cc(N3CCOCC3)c(NS(=O)(=O)c3ccc(Cl)cc3)cc21 here?
**A.** inconclusive: 11.2 µM [activator, partial curve]

**Q.** How did the Potency turn out when COc1ccc(CCNC(=O)Cn2c(-c3ccc(F)cc3)cc(C(C)=O)c2C)cc1OC was run?
**A.** inconclusive: 56.2 µM [activator, partial curve, poor fit]

**Q.** With CCOC(=O)Cn1c(CN2CCN(c3ccc(OC)cc3)CC2)nc2c1c(=O)[nH]c(=O)n2C as the compound, how does the Potency read?
**A.** inconclusive: 141 µM [activator, single point]

**Q.** For Cn1c(/C(C#N)=C/c2ccc(C(F)(F)F)cc2)nc2ccccc21, which “activation” value is on record?
**A.** inactive: -11.7%

**Q.** How did the activation turn out when COc1cc(C(C)=O)ccc1Oc1ccc(S(=O)(=O)N2CCOCC2)cn1 was run?
**A.** inconclusive: -59.7% [activator]

**Q.** Which Potency does the source give for Cc1cccc(N2CC3=C(C2=O)C(c2ccccc2)NC(=O)N3C)c1 (configuration not stated) here?
**A.** inconclusive: 3.98 µM [activator, partial curve, poor fit]

**Q.** How did the activation turn out when CCCN(CCC)C(=O)Cn1c(=O)n(-c2ccc(Cl)c(Cl)c2)c(=O)c2c(C)c(C(=O)N(C)C)sc21 was run?
**A.** inconclusive: 39.4% [activator]

**Q.** CNCc1cc(Cl)cc(OC)c1OC(C)C was tested. Which Potency did it give?
**A.** inconclusive: 79.4 µM [activator, single point]

**Q.** Which “outcome” value does the source give for CCOC(=O)N1CCC(=NNC(=O)Cn2ccc(C(F)(F)F)n2)CC1 here?
**A.** inactive

**Q.** With CCc1nc2nc(C)c(NS(=O)(=O)c3ccc(F)c(C)c3)c(=O)n2[nH]1 as the compound, how does the Potency read?
**A.** inconclusive: 28.2 µM [activator, partial curve, poor fit]

**Q.** For COC(=O)c1cn(Cc2ccc(C(F)(F)F)cc2)cc(F)c1=O, which Potency is on record?
**A.** inconclusive: 6.31 µM [activator, full curve, poor fit]

**Q.** Cc1ccc(NC(=S)NCc2cccn2C)cc1 was tested. Which Potency did it give?
**A.** active: 3.55 µM

**Q.** How did the activation turn out when S=c1[nH]nc(C2COc3ccccc3O2)o1 (configuration not stated) was run?
**A.** inconclusive: 52.8% [activator] [at 57.5 µM]

**Q.** CCOC(=O)C1C(=O)NC(c2ccccc2)=NC1c1ccccc1 (configuration not stated) was tested. Which Potency did it give?
**A.** inconclusive: 50.1 µM [activator, single point]

**Q.** Which activation does the source give for COCCCNC(=S)N1CCN(S(=O)(=O)c2ccc(OC)cc2)CC1 here?
**A.** inconclusive: 87.6% [activator]

**Q.** Which Potency does the source give for O=C(CCc1nnc2ccc(NCc3ccco3)nn12)Nc1ccc(F)cc1 here?
**A.** inconclusive: 112 µM [activator, partial curve, poor fit]

**Q.** Brc1cc(Br)c2nc(-c3ccc(N4CCOCC4)cc3)ccc2c1 was tested. Which “outcome” value did it give?
**A.** inactive

**Q.** Which “activation” value does the source give for CC(C)c1ccc(N(CC(=O)NCCCN2CCOCC2)S(=O)(=O)c2ccccc2)cc1 here?
**A.** inactive: -10.9%

**Q.** For Cc1ccc(S(=O)(=O)c2c(N)n(Cc3ccco3)c3nc4ccccc4nc23)cc1C, which “activation” value is on record?
**A.** inactive: -8.28% [at 57.5 µM]

**Q.** Which “activation” value does the source give for COc1ccccc1NC(=O)C(=O)Nc1ccccn1 here?
**A.** inactive: -19.9% [at 57.5 µM]

**Q.** How did the “activation” value turn out when OCC[C@H]1C[C@@H](O)[C@H](O)[C@]2(Cc3ccccc3CCO2)O1 was run?
**A.** inactive: -8.22%

**Q.** CCOc1ccc(OCC)c(NC(=O)c2cc(-c3cccs3)nc3ccccc23)c1 was tested. Which Potency did it give?
**A.** inconclusive: 112 µM [activator, single point]

**Q.** Which “outcome” value does the source give for C=CCNC(=O)c1onc(CSc2cccc3ccccc23)c1C(=O)O here?
**A.** inactive

**Q.** CCN(CC(=O)NC1CCS(=O)(=O)C1)c1ccc([N+](=O)[O-])cc1C#N (configuration not stated) was tested. Which Potency did it give?
**A.** inconclusive: 50.1 µM [activator, single point]

**Q.** With COc1ncnc2c1oc1nc(CC(C)C)c3c(c12)CC(C)(C)OC3 as the compound, how does the Potency read?
**A.** inconclusive: 39.8 µM [activator, single point]

**Q.** With CCCCn1c(N)c(N(CC)C(=O)C2CCCC2)c(=O)[nH]c1=O as the compound, how does the “outcome” value read?
**A.** inactive

**Q.** COc1cc(NC(=O)N2CCc3nc(Nc4cc(Cl)cc(Cl)c4)ncc3C2)cc(OC)c1OC was tested. Which “activation” value did it give?
**A.** inactive: -67.7%

**Q.** With COc1ccc(-c2c(C(C)=O)c(C)nc3sc4c(=O)[nH]nnc4c23)cc1 as the compound, how does the activation read?
**A.** inconclusive: 33.9% [activator]

**Q.** For CCOC(=O)c1noc(C)c1C(=O)Nc1nccs1, which Potency is on record?
**A.** inconclusive: 50.1 µM [activator, partial curve, poor fit]

**Q.** With CCCc1nn2c(=O)cc(CSCC(=O)Nc3cccc(OC)c3)nc2s1 as the compound, how does the activation read?
**A.** inconclusive: 51.6% [activator]

**Q.** How did the activation turn out when O=C(COC(=O)C1CCC1)Nc1cccc(S(=O)(=O)N2CCOCC2)c1 was run?
**A.** inconclusive: -58.8% [activator]

**Q.** COCCNc1nc(NCc2cccc(OC)c2)c2sc(-c3ccccc3)cc2n1 was tested. Which Potency did it give?
**A.** inconclusive: 126 µM [activator, partial curve, poor fit]

**Q.** COC(=O)c1ccccc1NC(=O)c1ccc2nc(Cc3ccccc3)oc2c1 was tested. Which activation did it give?
**A.** inconclusive: 35% [activator]

**Q.** With OCCNc1ncnc2c1ncn2[C@H]1CN(Cc2cccs2)C[C@@H](CO)O1 as the compound, how does the “outcome” value read?
**A.** inactive

**Q.** Which “outcome” value does the source give for Cc1cc(N2CCCCC2C)nc(-c2ccccc2O)n1 (configuration not stated) here?
**A.** inactive

**Q.** For C=CCc1ccc(OCC(O)CN2CCc3ccccc3C2)c(OC)c1 (configuration not stated), which Potency is on record?
**A.** inconclusive: 31.6 µM [activator, partial curve]

**Q.** CC(C)Oc1ccc(CNC(=O)c2ccc(CS(=O)Cc3ccccc3Cl)o2)cc1 (configuration not stated) was tested. Which “activation” value did it give?
**A.** inactive: -86.2%

**Q.** Cc1ccc(NC(=O)COC(=O)C2=NNC(=O)CC2)c(Br)c1 was tested. Which Potency did it give?
**A.** inconclusive: 112 µM [activator, single point]

**Q.** For O=C(NC1CCCCC1)C(c1ccncc1)N(C(=O)c1csnn1)c1ccc(F)cc1 (configuration not stated), which activation is on record?
**A.** inconclusive: 35.1% [activator]

**Q.** For CN1CCN(C2CCCCC2NS(=O)(=O)c2ccccc2)CC1 (configuration not stated), which “activation” value is on record?
**A.** inactive: -25.8%

**Q.** With CN1CCC(=NNC(=O)CN(c2cccc([N+](=O)[O-])c2)S(=O)(=O)c2ccccc2)CC1 as the compound, how does the Potency read?
**A.** inconclusive: 89.1 µM [activator, single point]
